## Primary screen of a compound library

Chains of the proteins cited; added tags and fusions are not shown. Residues count along the entry.
UniProt P9WNZ1, whole entry: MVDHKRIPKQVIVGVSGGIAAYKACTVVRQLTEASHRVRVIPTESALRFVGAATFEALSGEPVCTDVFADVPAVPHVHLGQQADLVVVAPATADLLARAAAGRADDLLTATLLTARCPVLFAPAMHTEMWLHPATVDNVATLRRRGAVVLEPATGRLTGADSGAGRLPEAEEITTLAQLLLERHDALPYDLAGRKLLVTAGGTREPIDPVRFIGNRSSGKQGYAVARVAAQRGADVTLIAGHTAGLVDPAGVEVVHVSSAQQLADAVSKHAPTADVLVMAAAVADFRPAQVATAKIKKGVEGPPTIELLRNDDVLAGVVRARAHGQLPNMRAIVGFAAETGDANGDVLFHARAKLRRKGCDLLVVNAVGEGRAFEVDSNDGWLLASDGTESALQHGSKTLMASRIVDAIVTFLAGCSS
UniProt P9WFT3, whole entry: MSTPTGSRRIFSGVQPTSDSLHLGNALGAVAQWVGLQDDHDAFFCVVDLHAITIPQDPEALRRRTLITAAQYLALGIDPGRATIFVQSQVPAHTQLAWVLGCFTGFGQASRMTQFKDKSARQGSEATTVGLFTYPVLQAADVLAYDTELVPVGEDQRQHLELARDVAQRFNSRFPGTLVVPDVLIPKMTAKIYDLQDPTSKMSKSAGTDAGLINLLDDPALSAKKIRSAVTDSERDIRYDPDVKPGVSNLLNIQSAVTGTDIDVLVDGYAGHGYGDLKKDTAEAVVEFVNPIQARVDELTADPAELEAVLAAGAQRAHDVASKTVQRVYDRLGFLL
UniProt Q4DA54, 1-478: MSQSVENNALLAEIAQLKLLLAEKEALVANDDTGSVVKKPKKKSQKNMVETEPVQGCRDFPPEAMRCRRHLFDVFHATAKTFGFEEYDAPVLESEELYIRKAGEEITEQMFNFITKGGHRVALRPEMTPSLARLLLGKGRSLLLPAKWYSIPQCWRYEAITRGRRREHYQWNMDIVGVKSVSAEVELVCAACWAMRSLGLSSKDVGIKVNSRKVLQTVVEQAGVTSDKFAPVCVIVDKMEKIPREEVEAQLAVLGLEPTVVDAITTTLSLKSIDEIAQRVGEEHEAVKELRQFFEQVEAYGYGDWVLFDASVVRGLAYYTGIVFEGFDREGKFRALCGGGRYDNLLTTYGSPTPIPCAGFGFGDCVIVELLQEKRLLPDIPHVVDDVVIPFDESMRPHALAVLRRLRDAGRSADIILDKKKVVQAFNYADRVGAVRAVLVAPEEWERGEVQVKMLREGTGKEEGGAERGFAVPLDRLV
UniProt Q8IDJ8, 1-583: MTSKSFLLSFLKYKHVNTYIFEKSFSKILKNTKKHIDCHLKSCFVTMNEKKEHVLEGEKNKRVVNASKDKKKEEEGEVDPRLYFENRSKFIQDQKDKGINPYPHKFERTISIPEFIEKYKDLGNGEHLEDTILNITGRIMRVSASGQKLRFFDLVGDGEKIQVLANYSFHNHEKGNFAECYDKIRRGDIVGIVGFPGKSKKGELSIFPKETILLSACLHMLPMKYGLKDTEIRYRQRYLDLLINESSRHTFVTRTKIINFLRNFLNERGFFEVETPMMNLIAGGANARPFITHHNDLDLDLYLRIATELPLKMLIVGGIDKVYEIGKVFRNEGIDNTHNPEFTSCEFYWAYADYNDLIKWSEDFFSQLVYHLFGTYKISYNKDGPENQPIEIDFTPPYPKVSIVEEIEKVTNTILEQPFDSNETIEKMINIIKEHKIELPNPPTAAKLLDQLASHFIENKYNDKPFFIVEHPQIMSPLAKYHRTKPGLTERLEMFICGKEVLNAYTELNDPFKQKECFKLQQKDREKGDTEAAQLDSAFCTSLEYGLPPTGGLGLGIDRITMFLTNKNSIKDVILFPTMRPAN

The values are deposited in ChEMBL (CHEMBL3988442, “University of Dundee, Small-Polar-MMV Screening Library” (2021)).

Each number is a percent effect as filed. The record does not define 0% and 100%; most values in the screen are far below 50% and negative numbers occur (in some assays of this library far below -100). Compounds were drawn at random from those tested, without regard to their results. A dash means the value is not listed here; it may have been measured.

CoaBC: 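Coenzyme A biosynthesis protein CoaBC, Mycobacterium tuberculosis (UniProt P9WNZ1). Enzyme assay of CoaBC with a phosphate dye (Biomol Green) read at 650 nm. Tested at 30 µM. Higher reads as stronger inhibition, judged from the few compounds that gave an IC50. Most strong results did not repeat in a second test. About 67,000 compounds were tested under these conditions; 0.06% (about 40) showed 50% or more at least once.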
MtTrpRS: 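Tryptophan-tRNA ligase, Mycobacterium tuberculosis (UniProt P9WFT3). Enzyme assay of tryptophanyl-tRNA synthetase; the read-out is not stated. Tested at 10 µM. Higher most likely means stronger inhibition; the record gives no direction and few retests gave an IC50. Size under these conditions: about 65,000 compounds, about 64 of them at 50% or above in at least one test.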
TcHisRS: 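Histidine-tRNA ligase, Trypanosoma cruzi CL Brener (UniProt Q4DA54). Enzyme assay of histidyl-tRNA synthetase; the read-out is not stated. Tested at 30 µM. Higher reads as stronger inhibition (inferred: compounds with an IC50 in retests scored well above the rest). Of about 69,000 compounds tested this way, about 31 (0.045%) reached 50% or more in at least one test.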
PfKRS1: 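Enzyme assay of the cytosolic lysyl-tRNA synthetase in 384-well plates, read by luminescence. Target: Lysine-tRNA ligase, Plasmodium falciparum 3D7 (UniProt Q8IDJ8). Concentration: 30 µM. Direction is inferred from only a few compounds that gave an IC50; most scored high, so higher reads as stronger inhibition. About 69,000 compounds were tested under these conditions; 0.071% (about 49) showed 50% or more at least once.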

Compound | CoaBC | MtTrpRS | TcHisRS | PfKRS1
CN(Cc1ccccc1)c1ncccc1CNC(=O)c1ccnn1C | -0.6098% | 4.371% | 1.807% | -0.09293%
O=S(=O)(NCc1cccnc1OC1CCCC1)N1CCCCC1 | 4.167% | 4.321% | 8.333% | 2.056%
CC(C)c1noc(CCCC(=O)N2CCN(C)CC2c2ccccc2)n1 (stereo not drawn) | 5.488% | -1.589% | 3.012% | 4.182%
CN(CCc1nc2cc(Cl)ccc2[nH]1)C(=O)c1ncn[nH]1 | 0.8% | -3.846% | 5.747% | 9.454%
CC(C)CN(C)c1ccc(C(=O)N2CCCC2c2cnn(C)c2)cn1 (stereo not drawn) | 0.1669% | 2.242% | -0.7576% | 0.6224%
Cc1cc(N(C)C)nc(C2COCCN2Cc2csc(C)n2)n1 (stereo not drawn) | 8.676% | 10.43% | -0.8571% | -0.4931%
CCCS(=O)(=O)N1CCC2(CCCN(c3ncc(F)cn3)C2)C1 (stereo not drawn) | 5.123% | -2.928% | 4.598% | 4.834%
COc1ccccc1NC(=O)NCC(O)(c1ccccc1)C1CC1 (stereo not drawn) | 4.904% | -2.495% | -0.8264% | -1.287%
C[S+]([O-])CCCNCc1cc(F)ccc1Br (stereo not drawn) | 4.925% | 6.208% | 5.759% | 1.861%
CCC(Nc1cccc(OC)c1)C(=O)NCc1ccc2[nH]c(=O)[nH]c2c1 (stereo not drawn) | -7.536% | -1.22% | 3.863% | 1.304%
C[C@H]1C[C@@H]2CCN(Cc3ccccn3)C[C@H]2O1 | 6.941% | -0.6103% | 1.657% | -0.7801%
N#Cc1nccnc1N1CCC(c2nc(C(F)(F)F)c[nH]2)CC1 | 4.146% | 0.3396% | 6.494% | 4.414%
Cc1nn(-c2ccccc2)c2c1C(c1ccc(C(=O)O)cc1)CC(=O)N2 (stereo not drawn) | 8.482% | -1.243% | 2.075% | 5.25%
Cn1nc(COc2cccnc2)c2c1CCN(CC1CC1)C2 | 2.716% | - | 10.58% | 3.711%
COc1cccc(OC2CN(C(=O)CCn3cnnn3)C2)c1 | 5.198% | 3.25% | 13.25% | 0.2182%
O=C(NCC1CC1)C1CCC2(CN(C(=O)c3ccno3)C2)O1 (stereo not drawn) | - | 0.4845% | 4.908% | 3.097%
CCC(NC(=O)c1ccc(OC)nn1)c1nc(C(F)(F)F)cs1 (stereo not drawn) | 4.39% | 0.55% | -0.9804% | 7.385%
CCc1nc(CCNC(=O)Nc2ccc(C(=O)NC)cc2)cs1 | 1.24% | 2.245% | 5% | 5.81%
COc1ccc(CN(C)[C@@H]2CN(C(=O)c3cncs3)C[C@H]2O)cc1 | -0.9804% | - | 2.128% | -1.024%
O=C(c1cccc(F)c1)N1CCOC(c2nc(-c3ncccn3)no2)C1 (stereo not drawn) | -0.7772% | -4.053% | 4.918% | -2.109%
COc1cc2c(cc1CN1C[C@@H](CN3CCOCC3)[C@@H](CO)C1)CCC2 | -9.639% | -7.006% | 4.255% | 2.122%
O=C1COC2(CCN(Cc3ccco3)CC2)CN1Cc1cccnc1 | 0.2353% | -2.322% | 4.327% | -0.6443%
Cc1ncc2c(n1)CN(CC(=O)Nc1nncs1)CC2 | 5.509% | 4.971% | 6.061% | 4.788%
CC(C(=O)Nc1cccc(Cl)c1SC(F)F)S(C)(=O)=O (stereo not drawn) | 12.51% | -1.72% | -5.263% | 4.27%
CC(c1cccnc1)N1CCN(CCCC#N)CC1 (stereo not drawn) | -1.474% | -0.7692% | 8.642% | 1.204%
CCn1c(CC2CCN(C(=O)c3cc(C(C)C)nn3C)CC2)n[nH]c1=O | 8% | 0.805% | 0% | -1.882%
Cc1cccc(C(=O)NCC(O)c2ccc(F)cc2F)c1 (stereo not drawn) | 9.921% | -1.944% | 2.041% | 10.27%
Cc1nccn1C1CCCN(C(=O)c2cc(O)nc3ccccc23)C1 (stereo not drawn) | 2.057% | -1.18% | 6.767% | 13.43%
CCOCCC(=O)N(C)Cc1noc(C(C)C)n1 | - | 4.025% | 2.597% | -2.326%
CCOC1COC2(CCN(Cc3ccc(C)c(C)c3)CC2)C1 (stereo not drawn) | 5.792% | -6.686% | 9.709% | 1.885%
Cc1nccn1-c1ncccc1CNC(=O)c1ccc(O)nc1 | 7.851% | -9.991% | 0.578% | 5.477%
COc1cccc2c1OCC(NC(=O)NC1CCN(C3CC3)CC1)C2 (stereo not drawn) | -1.754% | 4.767% | 4.348% | 1.08%
COc1cccc(CNC(=O)c2nc3c(s2)CCN(C(C)=O)CC3)c1 | 5.5% | 1.095% | 12.75% | 4.501%
CNC(=O)c1cn2cc(-c3ccccc3Cl)n(CC=C(C)C)c(=O)c2n1 | 16.55% | 2.397% | 18.79% | 2.889%
Cn1nccc1C(=O)N1CCOC(Cc2ccc(F)cc2)C1 (stereo not drawn) | 4.575% | -0.8112% | 3.279% | -1.039%
CCOc1ccc(C(=O)N2C[C@H]3CC[C@@H]2CN(C)C3)cc1OCC | -0.7371% | -2.016% | 5.882% | 4.643%
Cc1ccsc1-c1nccn1CCN1CCCCC1CO (stereo not drawn) | 9.761% | -4.686% | 1.064% | 3.799%
Cn1cc(CN2CCC(c3cc(COc4cccc(Cl)c4)[nH]n3)C2)cn1 (stereo not drawn) | 5.981% | -1.172% | 2.682% | -2.178%
O=C(CC1CCCC1)N1CCC2(CCN2Cc2ccc(F)cc2)C1 (stereo not drawn) | 1.158% | -1.599% | 10.68% | 5.335%
CC(C)CNC(=O)CN(C)S(C)(=O)=O | -0.8264% | 3.524% | 3% | -2.593%

The first 3 entries again:

For CN(Cc1ccccc1)c1ncccc1CNC(=O)c1ccnn1C the result was CoaBC: -0.6098%; MtTrpRS: 4.371%; TcHisRS: 1.807%; PfKRS1: -0.09293%.
For O=S(=O)(NCc1cccnc1OC1CCCC1)N1CCCCC1 the result was CoaBC: 4.167%; MtTrpRS: 4.321%; TcHisRS: 8.333%; PfKRS1: 2.056%.
For CC(C)c1noc(CCCC(=O)N2CCN(C)CC2c2ccccc2)n1 (stereo not drawn) the result was CoaBC: 5.488%; MtTrpRS: -1.589%; TcHisRS: 3.012%; PfKRS1: 4.182%.